Assay: Homogeneity of 14C-Mbz distribution in rat organs
Details: for Mean (CPM/0.2g): three sites

## COC(=O)Nc1nc2cc(C(=O)c3ccccc3)ccc2[nH]1 [Formulation 14C-Mbz]
Rat Brain
  Site Variations (%) (n=3): 7.96%
  Mean (CPM/0.2g): 358.27 CPM/0.2g
Rat Heart
  Site Variations (%) (n=3): 14.02%
  Mean (CPM/0.2g): 1300.72 CPM/0.2g
Rat Kidneys
  Site Variations (%) (n=3): 3.01%
  Mean (CPM/0.2g): 1192.13 CPM/0.2g
Rat Liver
  Site Variations (%) (n=3): 3.44%
  Mean (CPM/0.2g): 41978.90 CPM/0.2g
Rat Lung
  Site Variations (%) (n=3): 5.67%
  Mean (CPM/0.2g): 22429.33 CPM/0.2g
Rat Spleen
  Site Variations (%) (n=3): 5.15%
  Mean (CPM/0.2g): 31279.43 CPM/0.2g
